From PubChem BioAssay AID1508600 (Functional Genomics Laboratory (NCATS/FGL), 2020)
Among all 53,000 sequences or so, about 3,700 (7%) were called active.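 Rule for the calls: active = gene knockdowns whose robust z-score for IL-1 alpha signal is at least 2 or at most -2, so actives lie on both sides; inactive = the rest.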 The list shows a part of the results.

Experiment: Components of the Cytosolic LPS Sensing Pathway: Gene Identification via Genome-wide siRNA Screen;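 note: robust z of the log signal after scaling to non-targeting control siRNA wells of the plate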
Conditions: RAW264.7 macrophages, IL-1a HTRF, actives lie on both sides, screened at 100 nM (by protocol), cells primed 5 h with Pam3CSK4 first
Method in brief: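 Cells (RAW264.7, 1×10^4 per well) were transfected with siRNA at 100 nM and cultured 48h at 37 degrees C. Pam3CSK4 was added for 5 hours; LipidA transfection followed for 24 hour. IL-1a was then measured by HTRF.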
With GGCAUCUCUAUACCUGUCUTT against Adrb3 the z-score was inactive: -1.79. With GGUCGUCUGAUUUUUGAUATT against Atp1a1 the z-score was inactive: 0.391. In the case of GCUAGCUGUUGUAAAAGAATT against Gm4841, the z-score is reported as inactive: -0.507. In the case of GCCCUUGAAUAGAAGACAGTT against Gosr2, the z-score is reported as inactive: 0.631. With GCAUGGAAUAAGUACAUUUTT against Slc1a1 the z-score was inactive: 0.472. For GCCCAUUGAUCCGGAGUAATT against Dusp28, the z-score was inactive: 0.252. With GCAUUCAGAAUGAGCUGACTT against Nfasc the z-score was inactive: -0.921. In the case of GGCUCAUUCCUCUUCUUCCTT against Serhl, the z-score is reported as active: -3.08. With GGAACACACCAUCAUCCAGTT against H2-Ea the z-score was inactive: 1.29. In the case of GGUACUCAAUGCAAGAAAUTT against Coq10b, the z-score is reported as inactive: 0.264. In the case of GGCAGUGGUGAUAUACCAATT against Acsbg1, the z-score is reported as inactive: -0.0129. In the case of GGUCACACUUUCUUUGGAATT against Tcf25, the z-score is reported as inactive: 0.775. For GGCCAUUGCCUCUUCUACUTT against Plekha4, the z-score was inactive: -0.225. In the case of GGUUGUUGUGACCUUCCUGTT against Bod1, the z-score is reported as active: -2.65. For GGAGAAAGAUGGCAUAAUGTT against Slitrk6, the z-score was inactive: -0.595. With CGCCCAGUGCAAUUUUUUCTT against Asap2 the z-score was inactive: -0.313. For GCUUUCAGAUGGCUUUAAUTT against Psmc6, the z-score was inactive: -1.94. For “CCCACGAUACUCAAUUUUCTT against 1700006J14Rik”, the z-score was inactive: -0.646. For CCAUGUGUAAAGGGAGAAATT against Nxph2, the z-score was inactive: 0.893. With GCACUUUCCUAAUGGUCCUTT against Ifnab the z-score was inactive: 0.104. In the case of CCACAUUCUAGGUAUCUUGTT against Mapk3, the z-score is reported as inactive: -0.499. In the case of CCUAGUUGAAAAUUGGGAATT against Fuca2, the z-score is reported as inactive: 0.354. With GCCGGAAGAUAAGGCUCAUTT against Gap43 the z-score was active: -2.2. In the case of GGCUUAGCCUUUUCUUCCCTT against Notum, the z-score is reported as inactive: -1.1. In the case of GGAAGUCAAUCAGAGUCUGTT against Chd1, the z-score is reported as inactive: -0.936. In the case of GGAAGAGGACUGCUUAUCCTT against Zfp772, the z-score is reported as inactive: -1.87. In the case of GUGUAGCUCUUCACAGUUATT against Fgf2os, the z-score is reported as inactive: 0.673. For GGUUCAGCAAGAAGAAUCATT against Cyp3a13, the z-score was inactive: -0.668. In the case of GGGUUUUUUUAACUGCUUUTT against Efemp1, the z-score is reported as inactive: 0.162. With GGGUUAACUUUUGUUCAAUTT against Gm6288 the z-score was inactive: 0.761. With GCUUACCUAUUAGCAGCUUTT against Atg16l1 the z-score was inactive: -1.49. With GGAUGAAGACGGAUUCCUCTT against Map1lc3a the z-score was inactive: 0.384. In the case of GCGACAGGACUUCAUUACUTT against Pou1f1, the z-score is reported as inactive: 0.125. For GGUCCAGGUGAUAAAUAUATT against Aknad1, the z-score was inactive: 0.867. With GAGAUCUUACCCAGCAGAUTT against Ifna4 the z-score was inactive: 0.675. In the case of GUGAAGAGAAGGCUUGAGUTT against Ifna11, the z-score is reported as inactive: 0.236. With GGAGUUGUUGUGCUUUUAATT against Tmem45a the z-score was active: 3.02. With GGUCUUCUCCCAAAUAAAUTT against Lcmt1 the z-score was inactive: -0.565. With GGCUUUGGAAGUAUCUUUGTT against Pcsk7 the z-score was inactive: 0.267. In the case of GGUGAUGUAUGUUACGCUGTT against Srsf1, the z-score is reported as inactive: -0.00436. With CCUGGACCCAUUAUUUGCCTT against Slc35a2 the z-score was inactive: 0.44. For GCCUAUUCUAUCGAUAACCTT against Cdh23, the z-score was inactive: 0.801. For GCACAUGCACUUCUCACUUTT against Olfr223, the z-score was inactive: 0.816. In the case of CCCAUCUCCUUAAAGUCAATT against Ripk3, the z-score is reported as inactive: 1.32. For GGGAAAUGUUGAACAUAUCTT against Lap3, the z-score was inactive: 0.235. In the case of GGGCGAACACUCCAAAGAATT against Tiprl, the z-score is reported as inactive: 1.24. With “GCGAUGUAAUUACAAACCUTT against 9130019P16Rik” the z-score was inactive: -0.0706. With GGCUGUGAAGAAAUACCACTT against Lcp2 the z-score was inactive: 0.372. In the case of GGAUAUUCUUUCCAGGCUATT against Fanca, the z-score is reported as inactive: -0.0387. In the case of CGUGCAUGCAAAUUAUGUATT against Golga7b, the z-score is reported as inactive: -0.612. For GCACAGGAAACAAUUGAUATT against Stxbp4, the z-score was inactive: -0.0598. In the case of CCCAUGCUUGGAAUAAUUATT against Man1a, the z-score is reported as inactive: 0.00246. In the case of CCACGAUCAAGGAGAAUGUTT against Apoa4, the z-score is reported as inactive: -1.54. In the case of GGAGUUAGGCUGUAGAAGUTT against Dpysl2, the z-score is reported as inactive: 0.303. In the case of CCAUGGAGAAUCAUGACAGTT against Slfn1, the z-score is reported as inactive: 0.864. In the case of GCCUUUUUAAAGCUCAAGUTT against Zfp975, the z-score is reported as inactive: -0.553. In the case of CCAGUUUGUACAUAGUGUATT against Rab35, the z-score is reported as inactive: -1.05. In the case of GCUAGUGAAAAAGAUCGACTT against Kcnn2, the z-score is reported as inactive: -0.101. In the case of GGCUAUGGCAGUUAUCAAATT against Eif2s1, the z-score is reported as inactive: -0.799. In the case of CCUUUCCUAACUUGAUCACTT against Cbr2, the z-score is reported as inactive: 0.443. In the case of GGCCAAGCAUCCUGAACAATT against B3galt6, the z-score is reported as inactive: 0.0266. With CUUUUACACCAUCAUGACGTT against Mrgpra5 the z-score was active: -2.06. With GUAACUGUCACCCAGAGAATT against Defb10 the z-score was inactive: -0.339. In the case of GGGAAAUUAAAUCUGUUCATT against Mfsd9, the z-score is reported as inactive: 0.818. For GGAGGAGACUCCUAAGAAGTT against Cc2d1a, the z-score was inactive: -1.54. In the case of GGUUUGUUUCCUGACAUUATT against Sh3gl3, the z-score is reported as inactive: -1.48. In the case of GGACUUUGACCCGUACUAUTT against Scn8a, the z-score is reported as inactive: 0.951. In the case of GGUUCUCCUGAUUUGUUUATT against Sdhc, the z-score is reported as inactive: 0.421.
